Results of single-concentration screens

Protein sequences, listed by entry. Tags and fused reporters are not part of them. Residues count along the entry.
UniProt P9WFT3, whole entry: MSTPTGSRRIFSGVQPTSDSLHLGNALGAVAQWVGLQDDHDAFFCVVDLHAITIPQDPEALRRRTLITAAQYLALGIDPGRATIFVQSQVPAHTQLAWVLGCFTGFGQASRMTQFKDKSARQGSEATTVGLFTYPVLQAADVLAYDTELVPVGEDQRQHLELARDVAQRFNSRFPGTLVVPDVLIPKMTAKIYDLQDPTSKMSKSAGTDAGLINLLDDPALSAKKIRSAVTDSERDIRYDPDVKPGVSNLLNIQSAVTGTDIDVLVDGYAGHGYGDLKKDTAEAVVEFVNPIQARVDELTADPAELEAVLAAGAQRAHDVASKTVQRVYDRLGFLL
UniProt P9WPC5, whole entry: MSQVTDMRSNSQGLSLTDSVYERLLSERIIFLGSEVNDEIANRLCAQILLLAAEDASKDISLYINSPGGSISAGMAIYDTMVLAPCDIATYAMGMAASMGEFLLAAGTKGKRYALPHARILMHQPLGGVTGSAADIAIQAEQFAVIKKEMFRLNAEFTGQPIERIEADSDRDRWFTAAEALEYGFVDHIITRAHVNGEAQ
UniProt P9WPC3, whole entry partner: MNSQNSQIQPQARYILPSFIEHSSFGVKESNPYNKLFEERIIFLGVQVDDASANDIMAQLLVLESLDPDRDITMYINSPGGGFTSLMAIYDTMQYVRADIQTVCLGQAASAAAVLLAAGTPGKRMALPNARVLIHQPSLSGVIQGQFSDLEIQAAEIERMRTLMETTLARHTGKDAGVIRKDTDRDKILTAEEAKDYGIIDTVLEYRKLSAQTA
UniProt Q4DA54, 1-478: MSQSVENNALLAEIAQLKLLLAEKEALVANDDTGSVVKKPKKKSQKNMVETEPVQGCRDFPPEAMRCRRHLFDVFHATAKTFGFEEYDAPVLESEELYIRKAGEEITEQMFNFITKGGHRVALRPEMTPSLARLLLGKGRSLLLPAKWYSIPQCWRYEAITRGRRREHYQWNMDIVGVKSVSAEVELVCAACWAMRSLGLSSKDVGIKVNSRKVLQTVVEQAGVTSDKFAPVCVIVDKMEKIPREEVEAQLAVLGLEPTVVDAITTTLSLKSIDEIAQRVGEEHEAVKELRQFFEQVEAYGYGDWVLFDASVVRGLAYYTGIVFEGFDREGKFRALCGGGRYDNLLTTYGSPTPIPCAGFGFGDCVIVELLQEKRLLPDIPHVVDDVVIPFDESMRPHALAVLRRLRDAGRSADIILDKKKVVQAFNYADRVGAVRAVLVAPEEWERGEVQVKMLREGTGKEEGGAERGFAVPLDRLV

Source: ChEMBL document CHEMBL3988442, “University of Dundee, Small-Polar-MMV Screening Library” (2021).

Each number is a percent effect as filed.
How 0% and 100% were set is not recorded. Most values in the screen are low, and negative values occur.
Compounds were drawn at random from those tested, without regard to their results.
Two or more numbers in one place are separate tests of the same structure; such repeats can differ widely.
A dash means the value is not listed here; it may have been measured.

MtTrpRS: 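Enzyme assay of tryptophanyl-tRNA synthetase; the read-out is not stated. Target: Tryptophan-tRNA ligase, Mycobacterium tuberculosis (UniProt P9WFT3). Compounds at 10 µM. Higher most likely means stronger inhibition; the record gives no direction and few retests gave an IC50. Of about 65,000 compounds tested this way, about 64 (0.098%) reached 50% or more in at least one test.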
ClpP1P2: 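ClpP1P2, Mycobacterium tuberculosis (UniProt P9WPC5 and UniProt P9WPC3). Protease assay of ClpP1P2, read by the AMC dye that it sets free. Concentration: 50 µM. Higher reads as stronger inhibition, judged from the few compounds that gave an IC50. Most other retested compounds had strongly negative values. Of about 69,000 compounds tested this way, about 10 (0.015%) reached 50% or more in at least one test.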
TcHisRS: 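Enzyme assay of histidyl-tRNA synthetase; the read-out is not stated. Target: Histidine-tRNA ligase, Trypanosoma cruzi CL Brener (UniProt Q4DA54). Compounds at 30 µM. Higher reads as stronger inhibition (inferred: compounds with an IC50 in retests scored well above the rest). Of about 69,000 compounds tested this way, about 31 (0.045%) reached 50% or more in at least one test.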

| Compound | MtTrpRS | ClpP1P2 | TcHisRS |
|---|---|---|---|
| `CCc1nnc(Nc2cc(C)nc(C3CCN(c4cnccn4)C3)n2)s1` (stereo not drawn) | 1.483% | -3.012% | 5.639% |
| `O=C(C1CCOCC1)N1C[C@H]2CC[C@@H]1CN(Cc1ccncc1)C2` | 4.285% | -8.939% | 9.091% |
| `CC(C)CCC(=O)Nc1ccc2oc(=O)n(CCN(C)C)c2c1` | 3.693% | 7.844% | 13.33% |
| `COc1cc(NC(=O)N(C)CCC2CC2)ncn1` | -0.09709% | 11.78% | 5.882% |
| `CCSCCC(=O)NCc1cnn(-c2ccc(F)cc2F)c1` | 1.051% | -4.66% | -2.105% |
| `COc1ccc(C2=CCN(C(=O)C3CC(=O)N(C4CC4)C3)CC2)cc1` (stereo not drawn) | -2.242% | -8.93% | 3.788% |
| `Cc1cnc(N2CCOCC3(CCN(c4ccccn4)C3)C2)nc1` (stereo not drawn) | -1.245% | -5.616% | -1.22% |
| `CC(Nc1nc(-c2ccccc2)nc2c1CCNCC2)c1nccs1` (stereo not drawn) | 2.441% | -15.81% | 9.013% |
| `CCc1nccn1-c1cncc(C2CCCN2Cc2ccc(F)cc2)n1` (stereo not drawn) | -1.583% | -2.653% | 9.677% |
| `COc1ccc2c(c1)C(NCCc1c(C)noc1C)CCCO2` (stereo not drawn) | 3.827% | -11.61% | 8.333% |
| `CC(C)CCN(C(=O)Nc1cccc(C(=O)N(C)C)c1)C1CC1` | -4.139% | -2.101% | 6.667% |
| `Cc1ccc(-c2ccnc(N(C)CC3CCCO3)n2)c(C)n1` (stereo not drawn) | 0.129% | -13.79% | 8.081% |
| `Cc1occc1C(=O)N1C[C@@H](C(=O)NCc2ccco2)C[C@H]2OCC[C@H]21` | -6.294% | -2.825% | -0.9524% |
| `CC(C)Oc1cc(N2C[C@@H](C)O[C@@H](C)C2)nc(N)n1` | -2.709% | -1.497% | 7.5% |
| `Cc1cc(NC(=O)C(C)Cn2cncn2)no1` (stereo not drawn) | -0.4944% & -0.8542% | -19.4% & -1.019% | 6.438% & 8.485% |
| `O=C(NCCCN1CCCCCC1=O)c1n[nH]c(=O)c2ccccc12` | -7.138% | -16.89% | 7.493% |
| `Cc1cc(C)n(CC2CN(CC(=O)NCc3ccccn3)CCO2)n1` (stereo not drawn) | -0.7668% | -18.5% | 0% |
| `O=C(NCC1CC1)[C@@H]1C[C@@H]2CCN(Cc3ccccc3)C[C@H]2O1` | -6.472% | -23.96% | 8.571% |
| `COc1ccccc1OCc1nc2cc3c(cc2c(=O)o1)OCCCO3` | -2.056% | 8.4% | 7.407% |
| `Cc1ccc(Cl)cc1C(=O)N1CCC2(CC1)c1ccccc1[C@@H](N)[C@@H]2O` | 1.471% | -17.54% | 4.167% |
| `CCCN1CCC(CC(=O)NCCc2nc(C)cc(C)n2)CC1` | 6.201% | -1.466% | 2.609% |
| `O=C(c1ccnnc1)N1CCC2(CC1)CCN(C(=O)c1cccnc1)C2` | - | -0.8812% | 0% |
| `COc1ccccc1-c1cc(C(=O)N2CCCC2)c2cnn(C)c2n1` | -3.717% | 21.22% | 5.325% |
| `CCc1ccc(NC(=O)c2ncc(C(N)=O)cc2Cl)cc1F` | 0.7712% | -0.7346% | 7.975% |
| `O=C(NCC1(c2cccc(F)c2)CC1)N1CCC2(CCOC2)C1` (stereo not drawn) | -2.999% | -1.437% | 1.01% |
| `Cc1cnn(CC2CN(Cc3ccccn3)CCO2)c1` (stereo not drawn) | -2.939% | -11.83% | 0.5634% |
| `c1ccc2c3c([nH]c2c1)C(c1nn[nH]n1)CCC3` (stereo not drawn) | 6.278% | -3.981% | 1.98% |
| `CN(Cc1ccco1)C(=O)C1CSCN1C(=O)c1cccnc1` (stereo not drawn) | 2.437% | 0.2985% | 1.515% |
| `Cc1cccc(NC2CCc3c2[nH]c(=O)n(C2CCCCC2)c3=O)c1C` (stereo not drawn) | -3.291% | -9.529% | 0.5848% |
| `CCc1nnc2n1CCN(C(=O)c1ccc3[nH]nnc3c1)C2` | 6.111% | -14.65% | 5.804% |
| `CCn1cc(CN2CCCN(C(=O)c3ccccc3OC)CC2)cn1` | -1.63% | -40.82% | 4.956% |
| `Cc1cc(C)n(CC2CN(Cc3nc4ccccc4s3)CCO2)n1` (stereo not drawn) | 2.698% | -44.67% | 7.163% |
| `CSCCC(NC(N)=O)C(=O)NCc1ccc(-n2cccn2)cc1` (stereo not drawn) | -4.852% | -3.863% | 9.877% |
| `Cc1nc(CN2C(=O)C[C@@H]3[C@@H]2CCN3Cc2cnn(C)c2)cs1` | -1.161% | 9.027% | 4.327% |
| `Cc1ccc(C(=O)Nc2ccc3c(c2)N(C)CCN(C)C3)c(=O)[nH]1` | 0.6452% | 4.676% | 7.071% |
| `CS(=O)(=O)NCc1cc(-c2cc(F)cc(F)c2)nc(N2CC[C@H](O)C2)n1` | - | -1.734% | 11.3% |
| `COc1cccc(-c2nc(C)c(C(=O)NC(CO)CCSC)s2)c1` (stereo not drawn) | -13.07% | 1.371% | -3.825% |
| `Cc1nc2ccccc2n1Cc1cc(C(=O)NC2CCOC2)no1` (stereo not drawn) | 3.301% | -2.493% | 0.9901% |
| `COCC[C@]1(O)CCN(C(=O)C2CCN(C3CCCC3)CC2)C[C@H]1C` | 0.6101% | -8.704% | 3.004% |
| `Cc1ccc(O)c(CN2CCn3nc(C(=O)N4CCCC4)cc3C2)n1` | -2.677% | -19.21% | 5.051% |
| `CCc1ccccc1CN1CC[C@@H](NC(=O)c2cccnc2)[C@H](O)C1` | -7.204% | -2.594% | 3.252% |

The last 5 entries again:

Compound,MtTrpRS,ClpP1P2,TcHisRS
COc1cccc(-c2nc(C)c(C(=O)NC(CO)CCSC)s2)c1 (stereo not drawn),-13.07%,1.371%,-3.825%
Cc1nc2ccccc2n1Cc1cc(C(=O)NC2CCOC2)no1 (stereo not drawn),3.301%,-2.493%,0.9901%
COCC[C@]1(O)CCN(C(=O)C2CCN(C3CCCC3)CC2)C[C@H]1C,0.6101%,-8.704%,3.004%
Cc1ccc(O)c(CN2CCn3nc(C(=O)N4CCCC4)cc3C2)n1,-2.677%,-19.21%,5.051%
CCc1ccccc1CN1CC[C@@H](NC(=O)c2cccnc2)[C@H](O)C1,-7.204%,-2.594%,3.252%